Measurements published in patent US20150071855A1 (LONDON HEALTH SCIENCES CENTRE RESEARCHING, published 2015).
Results are given in words; binding and its absence hold for the method and conditions named. Some entries that bind do so weakly or less than the wild type. Where a sequence is shown, tags or fusion partners need not be part of it.

T1: recombinant GST-EGFL7 protein (UniProt Q9UHF1 24-273)
T1 construct: Expressed in Sf21 insect cells by baculovirus and purified on glutathione-agarose; The sense primer encodes MRGSQEV, which fits human EGFL7; also called purified EGFL7 protein; recombinant EGFL7; not shown: glutathione-S-transferase (GST) tag from the pDEST20 plasmid (Invitrogen); TEV site/linker region carried over from pENTR/TEV/D-TOPO
T1 sequence (looked up): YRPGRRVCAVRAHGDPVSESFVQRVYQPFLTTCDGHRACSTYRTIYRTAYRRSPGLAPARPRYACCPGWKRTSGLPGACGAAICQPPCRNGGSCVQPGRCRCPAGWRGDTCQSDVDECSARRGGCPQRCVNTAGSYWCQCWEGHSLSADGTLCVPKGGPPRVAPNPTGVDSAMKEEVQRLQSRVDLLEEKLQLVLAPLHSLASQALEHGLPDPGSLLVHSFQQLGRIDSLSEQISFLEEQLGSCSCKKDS


Target: T1, recombinant GST-EGFL7 protein
Assay: OBOC bead library screen with GST-EGFL7 on magnetic beads, then cell-based screen with EGFL7-positive and EGFL7-negative cells

| Binder | binding |
| --- | --- |
| RYQLHHPR | binds |
| HMYFLLGH | binds |
| EWELHAEE | binds |
| DPYDHEFR | binds |
| AYYEEAYE | binds |

Next, values leading:

| binding | Binder |
| --- | --- |
| binds | RYVDHEDW |
| binds | WYKLHPTM |
| binds | SQSSMYPS |
